# Experimental data as given in the supplement of paper PMC8728848.
# The list shows a part of the results.
# B1: PX9937I-bfa-538-26-538 (Bacteroides fragilis) (protein)
# chain: DKLDLSPIDYYGSGSYWKTEAQATAYIDGIHKHLRDAAWQHTITFGELRGGRFITGASSDGMGVSNGDIILQNFDETHTGVSKFGDLFGRITNLNLFIARVTDATYLSDEMKNFYLGEVYGLRAFYYFDLYRIYGGVPLRLTADVVEGVIDPNKLYMARSTPKEVMTQIKSDLNKSMEYFGNMNDFDPYKRGKKVYWSKAATECLMGEVYLWTSKVTTGDDVANPADLTIAKTHLESVLNNYNLKMLDDFSQVFNAKNKANDEIIFAIRFLEGEATNSNGTFTYNVGTGSTKNRYQANGEVFGDALDIQNTGNQTYEYNKAVYQNFDDADTRKEATFIASYNKDGKTGELSLYGTHVRKNIGYVNAQGARVYCGDYIFYRLPWVYLTLAEIANMEGDNAAVAKYINLVRKRAYGNAWDETLYAYPETADFTTNELAILHEKDKEFIQEGQRWWDLRRMTLTKGGTPLVFCKEGSLLGDAPILNKSTEAHKLLWPIEKTMLNKDPALEQTPGYK
# Legend:
# Experiment in all cases: glycan array binding signal (z-score within array); higher = stronger binding
# Conditions in all cases: glycan notation: IUPAC condensed, linker removed
# Fuc(a1-2)Gal = target: Fuc(a1-2)Gal
# In short: (§1)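 Glycan array data came from 3228 arrays in the Consortium for Functional Glycomics database, and only arrays with an available protein sequence were kept. Glycan names were put into IUPAC-condensed notation, and columns mapping to the same glycan were averaged. The binding signal is a within-array Z-score, averaged across arrays of one protein sequence run at different concentrations or buffers and across linkers. A negative Z-score can be read as non-binding.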
# Fuc(a1-2)Gal(b1-3)GalNAc = target: Fuc(a1-2)Gal(b1-3)GalNAc
# In short: as §1
# [1] = target: Fuc(a1-2)Gal(b1-3)GalNAc(a1-3)[Fuc(a1-2)]Gal(b1-4)Glc
# In short: as §1
# [2] = target: Fuc(a1-2)Gal(b1-3)GalNAc(a1-3)[Fuc(a1-2)]Gal(b1-4)GlcNAc
# In short: as §1
# [3] = target: Fuc(a1-2)Gal(b1-3)GalNAc(b1-3)Gal
# In short: as §1
# [4] = target: Fuc(a1-2)Gal(b1-3)GalNAc(b1-3)Gal(a1-4)Gal(b1-4)Glc
# In short: as §1
# [5] = target: Fuc(a1-2)Gal(b1-3)GalNAc(b1-4)[Neu5Ac(a2-3)]Gal(b1-4)Glc
# In short: as §1
# Fuc(a1-2)Gal(b1-3)GlcNAc = target: Fuc(a1-2)Gal(b1-3)GlcNAc
# In short: as §1
# [6] = target: Fuc(a1-2)Gal(b1-3)GlcNAc(b1-2)Man(a1-3)[Fuc(a1-2)Gal(b1-3)GlcNAc(b1-2)Man(a1-6)]Man(b1-4)GlcNAc(b1-4)GlcNAc
# In short: as §1
# [7] = target: Fuc(a1-2)Gal(b1-3)GlcNAc(b1-2)Man(a1-3)[Fuc(a1-2)Gal(b1-3)GlcNAc(b1-2)Man(a1-6)]Man(b1-4)GlcNAc(b1-4)[Fuc(a1-6)]GlcNAc
# In short: as §1
# [8] = target: Fuc(a1-2)Gal(b1-3)GlcNAc(b1-3)Gal(b1-4)Glc
# In short: as §1
# [9] = target: Fuc(a1-2)Gal(b1-3)GlcNAc(b1-3)GalNAc
# In short: as §1
# [10] = target: Fuc(a1-2)Gal(b1-3)GlcNAc(b1-3)[Fuc(a1-2)Gal(b1-3)GlcNAc(b1-6)]GalNAc
# In short: as §1
# [11] = target: Fuc(a1-2)Gal(b1-3)GlcNAc(b1-3)[Gal(b1-4)GlcNAc(b1-6)]Gal(b1-4)Glc
# In short: as §1
# [12] = target: Fuc(a1-2)Gal(b1-3)GlcNAc(b1-3)[Neu5Ac(a2-6)Gal(b1-4)GlcNAc(b1-6)]Gal(b1-4)Glc
# In short: as §1
# [13] = target: Fuc(a1-2)Gal(b1-3)GlcNAc6S
# In short: as §1
# [14] = target: Fuc(a1-2)Gal(b1-3)[Fuc(a1-4)]GlcNAc
# In short: as §1
# [15] = target: Fuc(a1-2)Gal(b1-3)[Fuc(a1-4)]GlcNAc(b1-2)Man(a1-3)[Fuc(a1-2)Gal(b1-3)[Fuc(a1-4)]GlcNAc(b1-2)Man(a1-3)]Man(b1-4)GlcNAc(b1-4)GlcNAc
# In short: as §1
# [16] = target: Fuc(a1-2)Gal(b1-3)[Fuc(a1-4)]GlcNAc(b1-2)Man(a1-3)[Fuc(a1-2)Gal(b1-3)[Fuc(a1-4)]GlcNAc(b1-2)Man(a1-6)]Man(b1-4)GlcNAc(b1-4)[Fuc(a1-6)]GlcNAc(b1-4)[Fuc(a1-6)]GlcNAc
# In short: as §1
# [17] = target: Fuc(a1-2)Gal(b1-3)[Fuc(a1-4)]GlcNAc(b1-3)[Fuc(a1-3)[Gal(b1-4)]GlcNAc(b1-6)]Gal(b1-4)Glc
# In short: as §1
# [18] = target: Fuc(a1-2)Gal(b1-3)[Fuc(a1-4)]GlcNAc(b1-3)[Gal(b1-4)GlcNAc(b1-6)]Gal(b1-4)Glc
# In short: as §1
# Fuc(a1-2)Gal(b1-4)Glc = target: Fuc(a1-2)Gal(b1-4)Glc
# In short: as §1
# Fuc(a1-2)Gal(b1-4)Glc6S = target: Fuc(a1-2)Gal(b1-4)Glc6S
# In short: as §1
# Fuc(a1-2)Gal(b1-4)GlcNAc = target: Fuc(a1-2)Gal(b1-4)GlcNAc
# In short: as §1
# [19] = target: Fuc(a1-2)Gal(b1-4)GlcNAc(b1-2)Man
# In short: as §1
# [20] = target: Fuc(a1-2)Gal(b1-4)GlcNAc(b1-2)Man(a1-3)[Fuc(a1-2)Gal(b1-4)GlcNAc(b1-2)Man(a1-6)]Man(b1-4)GlcNAc(b1-4)GlcNAc
# In short: as §1
# [21] = target: Fuc(a1-2)Gal(b1-4)GlcNAc(b1-2)Man(a1-3)[Fuc(a1-2)Gal(b1-4)GlcNAc(b1-2)Man(a1-6)]Man(b1-4)GlcNAc(b1-4)[Fuc(a1-6)]GlcNAc
# In short: as §1
# [22] = target: Fuc(a1-2)Gal(b1-4)GlcNAc(b1-2)[Fuc(a1-2)Gal(b1-4)GlcNAc(b1-4)]Man(a1-3)[Fuc(a1-2)Gal(b1-4)GlcNAc(b1-2)Man(a1-6)]Man(b1-4)GlcNAc(b1-4)GlcNAc
# In short: as §1
# [23] = target: Fuc(a1-2)Gal(b1-4)GlcNAc(b1-3)Gal(b1-4)GlcNAc
# In short: as §1
# [24] = target: Fuc(a1-2)Gal(b1-4)GlcNAc(b1-3)Gal(b1-4)GlcNAc(b1-2)Man(a1-3)[Fuc(a1-2)Gal(b1-4)GlcNAc(b1-3)Gal(b1-4)GlcNAc(b1-2)Man(a1-6)]Man(b1-4)GlcNAc(b1-4)GlcNAc
# In short: as §1
binder,measurement,setting,value
B1,glycan array binding signal (z-score),Fuc(a1-2)Gal,-0.258
same,glycan array binding signal (z-score),Fuc(a1-2)Gal(b1-3)GalNAc,0.13
same,glycan array binding signal (z-score),[1],-0.169
same,glycan array binding signal (z-score),[2],0.914
same,glycan array binding signal (z-score),[3],-1.04
same,glycan array binding signal (z-score),[4],-0.803
same,glycan array binding signal (z-score),[5],-0.124
same,glycan array binding signal (z-score),Fuc(a1-2)Gal(b1-3)GlcNAc,0.304
same,glycan array binding signal (z-score),[6],5.41
same,glycan array binding signal (z-score),[7],0.965
same,glycan array binding signal (z-score),[8],-0.607
same,glycan array binding signal (z-score),[9],-0.862
same,glycan array binding signal (z-score),[10],-0.035
same,glycan array binding signal (z-score),[11],0.065
same,glycan array binding signal (z-score),[12],-0.393
same,glycan array binding signal (z-score),[13],-0.192
same,glycan array binding signal (z-score),[14],0.507
same,glycan array binding signal (z-score),[15],-0.186
same,glycan array binding signal (z-score),[16],0.982
same,glycan array binding signal (z-score),[17],0.306
same,glycan array binding signal (z-score),[18],1.94
same,glycan array binding signal (z-score),Fuc(a1-2)Gal(b1-4)Glc,1.04
same,glycan array binding signal (z-score),Fuc(a1-2)Gal(b1-4)Glc6S,0.782
same,glycan array binding signal (z-score),Fuc(a1-2)Gal(b1-4)GlcNAc,0.509
same,glycan array binding signal (z-score),[19],0.093
same,glycan array binding signal (z-score),[20],3.93
same,glycan array binding signal (z-score),[21],1.57
same,glycan array binding signal (z-score),[22],1.02
same,glycan array binding signal (z-score),[23],-0.914
same,glycan array binding signal (z-score),[24],-0.602

# Reformatted with bars between the fields: part of the list above.
binder | measurement | setting | value
B1 | glycan array binding signal (z-score) | [8] | -0.607
same | glycan array binding signal (z-score) | [12] | -0.393
